Data on three molecules can be found in US20150166666A1.

The chains behind the UniProt entries cited, without tags or fusion partners. Where a name states a change or a piece, a line headed by the entry shows the natural chain unless it says otherwise.
UniProt P08887: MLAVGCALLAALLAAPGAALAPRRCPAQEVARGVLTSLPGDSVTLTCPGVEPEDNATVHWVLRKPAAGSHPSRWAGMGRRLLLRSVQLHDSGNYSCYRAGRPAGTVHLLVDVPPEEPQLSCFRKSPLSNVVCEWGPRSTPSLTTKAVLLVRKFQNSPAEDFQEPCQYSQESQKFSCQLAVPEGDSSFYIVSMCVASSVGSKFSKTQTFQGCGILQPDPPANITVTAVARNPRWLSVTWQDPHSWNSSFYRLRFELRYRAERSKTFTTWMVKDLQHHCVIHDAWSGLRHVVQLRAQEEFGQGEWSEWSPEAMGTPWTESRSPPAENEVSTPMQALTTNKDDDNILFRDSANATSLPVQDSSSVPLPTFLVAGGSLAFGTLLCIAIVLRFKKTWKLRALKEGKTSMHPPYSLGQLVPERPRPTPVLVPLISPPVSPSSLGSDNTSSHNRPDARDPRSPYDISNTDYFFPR

Where a chain is given by its changes, count along the chain named. These are yes or no findings as the source states them, for the method shown. Binding calls can cover weak binding; strength is not graded here.

The target in experiment [1] is Soluble cynomolgus monkey IL-6 receptor (in the plasma of cynomolgus monkeys) (cynomolgus monkey). Put plainly: percentage of free soluble cynomolgus IL-6 receptor in plasma after removal of IgG-bound receptor on Protein A; time course after a single 1 mg/kg i.v. dose in cynomolgus monkeys.
Experiment [2] has as its target Soluble recombinant human IL-6 receptor (SR344) (human) (UniProt P08887). Put plainly: statement in the discussion of the monkey study; no affinity of the control is printed.

B1: Fv3-M73 (H chain VH4-M73; L chain VL1-kappa) (antibody, V domains shown)
VH: QVQLQESGPGLVKPSETLSLTCAVSGHSISHDHAWSWVRQPPGEGLEWIGFISYSGITNYNPTLQGRVTISRDNSKNTLYLQMNSLRAEDTAVYYCARSLARTTAMDYWGEGTLVTVSS
VL: DIQMTQSPSSLSASVGDSVTITCQASRDISSHLNWYQQKPGKAPELLIYYGSHLLSGVPSRFSGSGSGTDFTFTISSLEAEDAATYYCGQGNRLPYTFGQGTKVEIER
With B1, the binding result in experiment [1] was “binds”.

B2: Fv5-M83 (H chain VH5-M83; L chain VL5-kappa) (antibody, human IgG1, kappa, V domains shown)
VH: B1 VH with H27Y, H31D, W35V, G66D, S99L, T103A, Y108V
VL: B1 VL with R27Q, H32Y, H53E, L55E
Take B2: the binding result in experiment [2] and in experiment [1] was “binds” each time.

B3: Fv4-M73 (H chain VH3-M73; L chain VL3-kappa) (antibody, V domains shown)
VH: B1 VH with T63S
VL: B1 VL with R27T
For B3, the binding entry in experiment [1] is listed as “binds”.
